From US9549558B2, “Herbicidal azines” (BASF SE, priority 2012, dated 2017)
Some entries share one result that the patent states for a list of compounds.

Columns and labels:
Assay type in all cases: in vivo
[1] = tested on: AMARE (Amaranthus retroflexus); assay: greenhouse post-emergence herbicidal test
Excerpt: (§1) The culture containers used were plastic flowerpots containing loamy sand with approximately 3.0% of humus as the substrate. The seeds of the test plants were sown separately for each species.
(§2) For the post-emergence treatment, the test plants were first grown to a height of 3 to 15 cm, depending on the plant habit, and only then treated with the active ingredients which had been suspended or emulsified in water. For this purpose, the test plants were either sown directly and grown in the same containers, or they were first grown separately as seedlings and transplanted into the test containers a few days prior to treatment.
(§3) Depending on the species, the plants were kept at 10-25° C. or 20-35° C., respectively.
(§4) The test period extended over 2 to 4 weeks. During this time, the plants were tended, and their response to the individual treatments was evaluated.
(§5) Evaluation was carried out using a scale from 0 to 100. 100 means no emergence of the plants, or complete destruction of at least the aerial moieties, and 0 means no damage, or normal course of growth. A moderate herbicidal activity is given at values of at least 60, a good herbicidal activity is given at values of at least 70, and a very good herbicidal activity is given at values of at least 85.
(§6) The plants used in the greenhouse experiments were of the following species: […]

[2] = tested on: CHEAL (Chenopodium album); assay: greenhouse post-emergence herbicidal test
Excerpt: as §1, §2, §3, §4, §5, §6

[3] = tested on: ABUTH (Abutilon theophrasti); assay: greenhouse post-emergence herbicidal test; details: 1000 g/ha
Excerpt: as §1, §2, §3, §4, §5, §6

SETVI (Setaria viridis) = assay: greenhouse post-emergence herbicidal test; details: 1000 g/ha
Excerpt: as §1, §2, §3, §4, §5, §6

VIOAR (Viola arvensis) = assay: greenhouse pre-emergence herbicidal test
Excerpt: as §1
(§7) For the pre-emergence treatment, the active ingredients, which had been suspended or emulsified in water, were applied directly after sowing by means of finely distributing nozzles. The containers were irrigated gently to promote germination and growth and subsequently covered with transparent plastic hoods until the plants had rooted. This cover caused uniform germination of the test plants, unless this had been impaired by the active ingredients.
as §3, §4, §5, §6

[4] = tested on: ABUTH (Abutilon theophrasti); assay: greenhouse pre-emergence herbicidal test
Excerpt: (§8) The seeds of the test plants were sown separately for each species. For the pre-emergence treatment, the active ingredients, which had been suspended or emulsified in water, were applied directly after sowing by means of finely distributing nozzles. The containers were irrigated gently to promote germination and growth and subsequently covered with transparent plastic hoods until the plants had rooted. This cover caused uniform germination of the test plants, unless this had been impaired by the active ingredients. Depending on the species, the plants were kept at 10-25° C. or 20-35° C., respectively. The test period extended over 2 to 4 weeks. During this time, the plants were tended, and their response to the individual treatments was evaluated. […] A moderate herbicidal activity is given at values of at least 60, a good herbicidal activity is given at values of at least 70, and a very good herbicidal activity is given at values of at least 85. The plants used in the greenhouse experiments were of the following species: [table]

[5] = tested on: AMARE (Amaranthus retroflexus); assay: greenhouse pre-emergence herbicidal test
Excerpt: as §8

SETFA (Setaria faberi) = assay: greenhouse pre-emergence herbicidal test
Excerpt: as §1, §7, §3, §4, §5, §6

[6] = tested on: CAPBP (Capsella bursa-pastoris); assay: greenhouse pre-emergence herbicidal test
Excerpt: as §1, §7, §3, §4, §5, §6

STEME (Stellaria media) = assay: greenhouse pre-emergence herbicidal test
Excerpt: as §1, §7, §3, §4, §5, §6

Nc1nc(Nc2c(F)c(F)cc(F)c2F)nc(C2CC2)n1 [Example 55]
herbicidal activity ([1]; 0.062 kg/ha): very good (a very good herbicidal activity is given at values of at least 85)
herbicidal activity ([2]; 0.062 kg/ha): very good (a very good herbicidal activity is given at values of at least 85)

CNc1nc(Nc2c(F)c(F)c(F)c(F)c2F)nc(C2CCCC2)n1 [Example 178]
herbicidal activity [3]: very good (a very good herbicidal activity is given at values of at least 85)
herbicidal activity ([1]; 1000 g/ha): very good (a very good herbicidal activity is given at values of at least 85)
herbicidal activity (SETVI (Setaria viridis)): very good (a very good herbicidal activity is given at values of at least 85)

Nc1nc(Nc2c(F)cc(F)cc2F)nc(C2CCCCC2)n1 [Example 139]
herbicidal activity (VIOAR (Viola arvensis); 250 g/ha): good (a good herbicidal activity is given at values of at least 70)

Nc1nc(Nc2c(F)c(F)c(F)c(F)c2F)nc(C2CCCCC2)n1 [Example 59]
herbicidal activity ([1]; 0.125 kg/ha): very good (a very good herbicidal activity is given at values of at least 85)
herbicidal activity ([2]; 0.125 kg/ha): very good (a very good herbicidal activity is given at values of at least 85)

Nc1nc(Nc2c(F)c(F)c(F)c(F)c2F)nc(C2CC2)n1 [Example 56]
herbicidal activity ([1]; 0.062 kg/ha): very good (a very good herbicidal activity is given at values of at least 85)
herbicidal activity ([2]; 0.062 kg/ha): very good (a very good herbicidal activity is given at values of at least 85)

COC(C)c1nc(N)nc(Nc2c(F)c(F)cc(F)c2F)n1 (stereo not shown) [Example 230]
herbicidal activity ([4]; 500 g/ha): very good (a very good herbicidal activity is given at values of at least 85)
herbicidal activity ([5]; 500 g/ha): very good (a very good herbicidal activity is given at values of at least 85)
herbicidal activity (SETFA (Setaria faberi); 500 g/ha): very good (a very good herbicidal activity is given at values of at least 85)

CC(Cl)(CCl)c1nc(N)nc(Nc2c(F)c(F)c(F)c(F)c2F)n1 (stereo not shown) [Example 164]
herbicidal activity ([6]; 250 g/ha): very good (a very good herbicidal activity is given at values of at least 85)
herbicidal activity (STEME (Stellaria media); 250 g/ha): very good (a very good herbicidal activity is given at values of at least 85)
herbicidal activity (VIOAR (Viola arvensis); 250 g/ha): very good (a very good herbicidal activity is given at values of at least 85)

Nc1nc(Nc2c(F)c(F)cc(F)c2F)nc(C2=CCCC2)n1 [Example 118]
herbicidal activity ([6]; 500 g/ha): very good (a very good herbicidal activity is given at values of at least 85)
herbicidal activity (STEME (Stellaria media); 500 g/ha): very good (a very good herbicidal activity is given at values of at least 85)
herbicidal activity (VIOAR (Viola arvensis); 500 g/ha): very good (a very good herbicidal activity is given at values of at least 85)

CCC1CCC(c2nc(N)nc(Nc3c(F)c(F)c(F)c(F)c3F)n2)CC1 (stereo not shown) [Example 166]
herbicidal activity [3]: very good (a very good herbicidal activity is given at values of at least 85)
herbicidal activity ([1]; 1000 g/ha): very good (a very good herbicidal activity is given at values of at least 85)
herbicidal activity (SETVI (Setaria viridis)): very good (a very good herbicidal activity is given at values of at least 85)

CCC(=O)Nc1nc(CC)nc(N(C(=O)CC)c2c(F)c(F)c(Br)c(F)c2F)n1 [Example 292]
herbicidal activity [3]: very good (a very good herbicidal activity is given at values of at least 85)
herbicidal activity ([1]; 1000 g/ha): very good (a very good herbicidal activity is given at values of at least 85)
herbicidal activity (SETVI (Setaria viridis)): very good (a very good herbicidal activity is given at values of at least 85)

CC(F)c1nc(N)nc(Nc2c(F)ccc(F)c2F)n1 (stereo not shown) [Example 110]
herbicidal activity ([4]; 125 g/ha): very good (a very good herbicidal activity is given at values of at least 85)
herbicidal activity ([5]; 125 g/ha): very good (a very good herbicidal activity is given at values of at least 85)
herbicidal activity (SETFA (Setaria faberi); 125 g/ha): very good (a very good herbicidal activity is given at values of at least 85)

Nc1nc(Nc2c(F)c(F)c(Br)c(F)c2F)nc(C(F)(F)F)n1 [Example 183]
herbicidal activity [3]: very good (a very good herbicidal activity is given at values of at least 85)
herbicidal activity ([1]; 1000 g/ha): very good (a very good herbicidal activity is given at values of at least 85)
herbicidal activity (SETVI (Setaria viridis)): very good (a very good herbicidal activity is given at values of at least 85)

Nc1nc(Nc2c(F)c(F)cc(F)c2F)nc(C2(Cl)CCCCC2)n1 [Example 161]
herbicidal activity ([6]; 250 g/ha): very good (a very good herbicidal activity is given at values of at least 85)
herbicidal activity (STEME (Stellaria media); 250 g/ha): very good (a very good herbicidal activity is given at values of at least 85)
herbicidal activity (VIOAR (Viola arvensis); 250 g/ha): very good (a very good herbicidal activity is given at values of at least 85)

Nc1nc(Nc2c(F)c(F)c(F)c(F)c2F)nc(C2(Cl)CCCCC2)n1 [Example 162]
herbicidal activity ([6]; 250 g/ha): very good (a very good herbicidal activity is given at values of at least 85)
herbicidal activity (STEME (Stellaria media); 250 g/ha): very good (a very good herbicidal activity is given at values of at least 85)
herbicidal activity (VIOAR (Viola arvensis); 250 g/ha): very good (a very good herbicidal activity is given at values of at least 85)

CC=C(C)c1nc(N)nc(Nc2c(F)c(F)c(F)c(F)c2F)n1 [Example 125]
herbicidal activity ([6]; 500 g/ha): very good (a very good herbicidal activity is given at values of at least 85)
herbicidal activity (STEME (Stellaria media); 500 g/ha): very good (a very good herbicidal activity is given at values of at least 85)
herbicidal activity (VIOAR (Viola arvensis); 500 g/ha): very good (a very good herbicidal activity is given at values of at least 85)

Nc1nc(Nc2c(F)cc(F)cc2F)nc(C2CCCC2)n1 [Example 140]
herbicidal activity (VIOAR (Viola arvensis); 250 g/ha): good (a good herbicidal activity is given at values of at least 70)

Nc1nc(Nc2c(F)c(F)c(F)c(F)c2F)nc(C2CCCC2)n1 [Example 58]
herbicidal activity ([1]; 0.125 kg/ha): very good (a very good herbicidal activity is given at values of at least 85)
herbicidal activity ([2]; 0.125 kg/ha): very good (a very good herbicidal activity is given at values of at least 85)
